Measurements reported in PubChem BioAssay AID2685 (National Center for Advancing Translational Sciences (NCATS), 2010).
The other results are listed elsewhere or left out. These are further read-outs of the screen, such as a control signal, another cell line or another target. No call is given for them. Most of these compounds were active or inconclusive in the main read-out, so they are no random draw. Words in brackets tell the shape of the fitted curve; partial curves, single points and poor fits give uncertain potencies.

Assay: qHTS Assay for Lipid Storage Modulators in Drosophila S3 Cells;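 as to cell number change: cells counted by Cell Tracker Red CMTPX staining in the red channel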
Details: BODIPY lipid droplet fluorescence, 18-24 h; for cell number change: measured here: cell count max response, cells fed with added oleic acid
How it was run: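 Drosophila S3 cells got compounds at several concentrations plus oleic acid (400 uM solution). Laser-scanning cytometry with 488 nm excitation read lipid droplets at 500-530 nm and cells at 575-640 nm. Percent activity was relative to 20 uM Triacsin C.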

[1] = measured here: lipid fluorescence (Fed channel) AC50, cells fed with added oleic acid
[2] = measured here: cell number channel AC50, cells fed with added oleic acid

Row | SMILES | cell number change | AC50 [1] | AC50 [2]
1 | Cc1cc(NC(=O)C2CCCN(S(=O)(=O)c3c(C)noc3C)C2)no1 (stereo not given) | 19% | 16.4 µM [rising, single point] | –
2 | CCOC(=O)N1CCN(CC(=O)Nc2ccc([N+](=O)[O-])cc2C(=O)Nc2ccccc2F)CC1 | 22% | 2.31 µM [rising, partial curve] | –
3 | COc1ccc(C)cc1NS(=O)(=O)c1cn(C)nc1C | 32.9% | – | 0.116 µM [falling, full curve, poor fit]
4 | COc1ccccc1CNC(=O)CCCC(=O)n1ncc2cc(C)ccc21 | -6.05% | 5.17 µM [falling, single point] | –
5 | COc1ccc(CNc2ncnc3sccc23)cc1 | 10.5% | – | 0.0291 µM [rising, full curve, poor fit]
6 | C=CCC(Nc1ccccc1)c1cccc(OC)c1OC (stereo not given) | 9.59% | 0.92 µM [rising, partial curve] | –
7 | O=C(Nc1ccc(Br)cc1Br)C1CC(=O)N(Cc2ccccc2)C1 (stereo not given) | 23.8% | 4.11 µM [rising, full curve, poor fit] | –
8 | CCOC(=O)c1c(N)sc2c(NC(C)=O)cccc12 | -16.8% | 10.3 µM [rising, partial curve, poor fit] | –
9 | CCCOC1CCCN(Cc2nc(-c3cnccn3)no2)C1 (stereo not given) | – | 0.103 µM [rising, full curve, poor fit] | –
10 | O=C1CN(C(=O)c2c(F)cccc2F)C(c2ccc(F)cc2)c2cc(F)ccc2N1 (stereo not given) | 21.6% | – | –
11 | COc1cccc(Nc2nc3ccccc3n3cnnc23)c1 | -41% | 4.11 µM [falling, single point] | 9.2 µM [falling, partial curve]
12 | O=C1C=C(NCCN2CCOCC2)C(=O)c2cnccc21 | – | 5.17 µM [falling, partial curve] | –
13 | NNC(=O)c1oc2nc(-c3ccc(Cl)cc3)cc(-c3ccccc3)c2c1N | -31.5% | 3.66 µM [falling, partial curve] | 32.6 µM [falling, single point]
14 | COc1ccc2oc(-c3ccc(NC(=O)c4ccc(N5CCOCC5)c([N+](=O)[O-])c4)cc3)nc2c1 | -13.3% | 11.6 µM [falling, single point] | –
15 | CC(C)C[C@H]1C(=O)N2CCC[C@H]2[C@]2(O)O[C@](NC(=O)[C@@H]3C=C4c5cccc6[nH]c(Br)c(c56)CC4N(C)C3)(C(C)C)C(=O)N12 (stereo not given in full) | -31.1% | 0.00461 µM [falling, full curve, poor fit] | 29.1 µM [falling, single point]
16 | COc1cccc(C2C(C#N)=C(N)N(N(C)C)C3=C2C(=O)CCC3)c1OC (stereo not given) | 15.3% | – | –
17 | O=C(Nc1ccc(F)c(Cl)c1)C1CCCCC1 | -34.1% | – | 6.51 µM [falling, partial curve, poor fit]
18 | CC(C)(O)C(=O)NNC(=S)NCc1ccco1 | 17.3% | 0.1 µM [rising, full curve, poor fit] | –
19 | COc1ccc2cc(C(=O)C3CCCN(C(=O)C4=NN(C)C(=O)CC4)C3)ccc2c1 (stereo not given) | 13.9% | 6.51 µM [rising, single point] | –

4 of these compounds, set out differently.
Row,SMILES,cell number change,AC50 [1],AC50 [2]
12,O=C1C=C(NCCN2CCOCC2)C(=O)c2cnccc21,–,"5.17 µM [falling, partial curve]",–
13,NNC(=O)c1oc2nc(-c3ccc(Cl)cc3)cc(-c3ccccc3)c2c1N,-31.5%,"3.66 µM [falling, partial curve]","32.6 µM [falling, single point]"
14,COc1ccc2oc(-c3ccc(NC(=O)c4ccc(N5CCOCC5)c([N+](=O)[O-])c4)cc3)nc2c1,-13.3%,"11.6 µM [falling, single point]",–
15,CC(C)C[C@H]1C(=O)N2CCC[C@H]2[C@]2(O)O[C@](NC(=O)[C@@H]3C=C4c5cccc6[nH]c(Br)c(c56)CC4N(C)C3)(C(C)C)C(=O)N12 (stereo not given in full),-31.1%,"0.00461 µM [falling, full curve, poor fit]","29.1 µM [falling, single point]"

Next compounds follow:

Row | SMILES | cell number change | AC50 [1] | AC50 [2]
20 | Cc1ccccc1C(=O)N1CCN(S(=O)(=O)c2ccccc2)CC1 | 3.96% | 29.1 µM [rising, single point] | –
21 | CCOC(=O)/C=C1\NC(C)(C)Cc2cc(OC)c(O)cc21 | -56.9% | 0.366 µM [falling, full curve] | 32.6 µM [falling, partial curve, poor fit]
22 | O=C(O)c1cccc(N/N=C(\N=Nc2ccccc2)c2ccccc2)c1 | 17.9% | – | –
23 | Cc1ccc(-c2nn(CC(=O)NN3CCOCC3)c(=O)c3ccccc23)cc1 | -30.1% | 5.8 µM [falling, full curve] | 2.06 µM [falling, full curve, poor fit]
24 | CCOC(=O)C1CCCN(C(=O)Cn2cnc3c2c(=O)n(C)c(=O)n3C)C1 (stereo not given) | 15% | 0.116 µM [falling, single point] | –
25 | O=C1c2cccc3cccc(c23)C(=O)N1c1nccs1 | 0.982% | 32.6 µM [rising, partial curve, poor fit] | –
26 | CCC(C)[C@H](NS(=O)(=O)c1ccc(C)cc1)C(=O)N1CCC(C(=O)N[C@@H](Cc2ccccc2)C(=O)O)CC1 (stereo not given in full) | -9.16% | 0.651 µM [rising, single point] | –
27 | CCCN(CCC)CCCNC(=O)c1cc2c(-c3ccc(OC)c(OC)c3)nn(C)c2s1 | -2.83% | 29.1 µM [falling, single point] | –
28 | Cc1ccc(-n2nc(C)c3c(C)c(CCC(=O)NCc4ccccc4)c(C)nc32)cc1 | -19% | 32.6 µM [falling, partial curve, poor fit] | –
29 | COc1ccc(CCNC(=O)CCc2ccsc2)cc1OC | – | 29.1 µM [rising, single point] | –
30 | COc1ccc(-c2cc(C(=O)OC(C)C(=O)Nc3c(C)n(C)n(-c4ccccc4)c3=O)c3ccccc3n2)cc1 (stereo not given) | -4.2% | 0.00517 µM [rising, full curve] | –
31 | CC(C)CN(C1CCS(=O)(=O)C1)S(=O)(=O)c1ccc(C(C)C)cc1 (stereo not given) | -17.6% | 20.6 µM [falling, partial curve, poor fit] | –
32 | CCc1cccc(C)c1NC(=O)CCOc1ccccc1 | 15.4% | 4.11 µM [rising, partial curve] | –
33 | O=C(COC(=O)Cn1[nH]c(=O)c2ccccc2c1=O)Nc1c(Cl)cccc1C(F)(F)F | -3.74% | 3.66 µM [rising, full curve, poor fit] | –
34 | Cc1cc(C)c(C)c(S(=O)(=O)N2CCN(C(=O)CCc3nc4ccccc4c(=O)[nH]3)CC2)c1C | -20.3% | 9.2 µM [falling, partial curve, poor fit] | –
35 | C/C(=N\NC(=O)c1cc(-c2cccc([N+](=O)[O-])c2)n[nH]1)c1ccccc1O | 6.57% | 8.2 µM [rising, partial curve] | –
36 | Cc1cccc(Nc2nnc(SCC(=O)NC3CCCc4ccccc43)s2)c1C (stereo not given) | -9.61% | 1.46 µM [falling, full curve, poor fit] | –
37 | O=C(Cn1ccc([N+](=O)[O-])n1)NCC1CCCO1 (stereo not given) | -3.76% | 0.92 µM [falling, partial curve, poor fit] | –
38 | Cc1ccc([N+](=O)[O-])c(OCCN2CCC(Cc3ccccc3)CC2)c1 | 8.31% | 0.00517 µM [falling, full curve, poor fit] | 0.0058 µM [falling, full curve, poor fit]

Row | SMILES | cell number change | AC50 [1] | AC50 [2]
39 | CCCOc1cccc(C2C(C(=O)c3ccc(C)o3)=C(O)C(=O)N2CCN2CCOCC2)c1 (stereo not given) | 12.2% | 20.6 µM [rising, single point] | –
40 | O=C(CSc1ncnc2c1sc1ccccc12)Nc1ccc(Br)cc1 | 2.94% | 0.82 µM [rising, single point] | –
41 | COC1c2ccccc2C(=O)N1Cc1ccc(F)cc1 (stereo not given) | -7.08% | 0.231 µM [rising, full curve, poor fit] | –
42 | Cc1ccc(C(=O)OC(C)C(=O)NCc2ccc3c(c2)OCO3)cc1S(=O)(=O)N1CCOCC1 (stereo not given) | -16.1% | – | –
43 | CCC(c1nnc(SCC(=O)Nc2cc(C)on2)o1)N(C)C (stereo not given) | -30.2% | 0.731 µM [rising, single point] | 14.6 µM [falling, single point]
44 | COC(=O)c1cc(=O)n(-c2ccccc2)c(=Nc2ccccc2)s1 | -33.1% | 16.4 µM [falling, partial curve] | 29.1 µM [falling, single point]
45 | CC1(C)CC(NC(=O)c2ccccn2)CC(C)(C)N1O | -28.6% | 1.16 µM [rising, single point] | –
46 | Cc1cnn(-c2cc(N/N=C/c3ccccc3)ncn2)c1 | -9.73% | – | –
47 | CC(C)Cn1c(-c2ccccc2)nc(=S)c2c1CCCC2 | 36.6% | 3.26 µM [falling, single point] | 29.1 µM [rising, single point]
48 | O=C(CNc1cccc(S(=O)(=O)N2CCOCC2)c1)Nc1ccc(C(F)(F)F)cc1 | – | 0.103 µM [rising, full curve, poor fit] | –
49 | O=C(c1ccccc1)N(CCN1CCOCC1)C1(C(=O)Nc2ccccc2)CCCCC1 | -13% | 0.82 µM [falling, full curve, poor fit] | –
50 | CCNC(=O)CCc1nc(-c2ccc(C(C)(C)C)cc2)no1 | -38.3% | 13 µM [falling, partial curve] | 29.1 µM [falling, single point]
51 | CCOC(=O)c1cnc(SCc2ccc(C(C)(C)C)cc2)nc1N | -2.81% | 6.51 µM [rising, single point] | –
52 | CN(c1ccccc1)S(=O)(=O)c1cccc(NC(=O)C2CC(=O)N(Cc3ccccc3)C2)c1 (stereo not given) | -2.94% | 29.1 µM [falling, single point] | –
53 | O=C1NC2(CCCCC2)NN1c1ccccc1 | -0.975% | 6.51 µM [rising, partial curve, poor fit] | 6.51 µM [rising, partial curve, poor fit]
54 | Cc1ccccc1N/C(SCc1cccc(Br)c1)=C(/C#N)C(N)=O | -34.6% | 3.66 µM [falling, full curve, poor fit] | 29.1 µM [falling, single point]
55 | COc1ccc(S(=O)(=O)Nc2cccnc2)c(C)c1C | 15.1% | 29.1 µM [falling, single point] | –
56 | CCOC(=O)CNC(=O)N1CCC(CCC(=O)N(C)Cc2ccccc2)CC1 | 3.41% | 29.1 µM [rising, single point] | –
